Data reported in US12521402B2, “Biomarker and drug combinations for heart failure prediction” (Endothelium Scanning Nanotechnology Limited, priority 2022, dated 2026).

Assay: Saliva proteomics: biomarker quantification by mass spectrometry SWATH in participants at risk of heart failure vs controls
Parameters: species or system human
Conditions: saliva; for Control vs Risk: differential expression (fold) control vs 'at risk' group; for AtRisk average: 'at risk' of heart failure group mean; for AtRisk average / Control average: mass spectrometry SWATH quantification, 20 samples; for Control average: control group mean

| Molecule | Control vs Risk | AtRisk average | Control average |
| --- | --- | --- | --- |
| ANGT (protein, UniProt P01019 25-476, looked up) Angiotensinogen: DRVYIHPFHLVIHNESTCEQLAKANAGKPKDPTFIPAPIQAKTSPVDEKALQDQLVLVAAKLDTEDKLRAAMVGMLANFLGFRIYGMHSELWGVVHGATVLSPTAVFGTLASLYLGALDHTADRLQAILGVPWKDKNCTSRLDAHKVLSALQAVQGLLVAQGRADSQAQLLLSTVVGVFTAPGLHLKQPFVQGLALYTPVVLPRSLDFTELDVAAEKIDRFMQAVTGWKTGCSLMGASVDSTLAFNTYVHFQGKMKGFSLLAEPQEFWVDNSTSVSVPMLSGMGTFQHWSDIQDNFSVTQVPFTESACLLLIQPHYASDLDKVEGLTFQQNSLNWMKKLSPRTIHLTMPQLVLQGSYDLQDLLAQAELPAILHTELNLQKLSNDRIRVGEVLNSIFFELEADEREPTESTQQLNKPEVLEVTLNRPFLFAVYDQSATALHFLGRVANPLSTA | 2.00 | 102,940 ng/ml | 51,445 ng/ml |
| A2GL (protein, UniProt P02750 36-347, looked up) Leucine-rich …: VTLSPKDCQVFRSDHGSSISCQPPAEIPGYLPADTVHLAVEFFNLTHLPANLLQGASKLQELHLSSNGLESLSPEFLRPVPQLRVLDLTRNALTGLPPGLFQASATLDTLVLKENQLEVLEVSWLHGLKALGHLDLSGNRLRKLPPGLLANFTLLRTLDLGENQLETLPPDLLRGPLQLERLHLEGNKLQVLGKDLLLPQPDLRYLFLNGNKLARVAAGAFQGLRQLDMLDLSNNSLASVPEGLWASLGQPNWDMRDGFDISGNPWICDQNLSDLYRWLQAQKDKMFSQNDTRCAGPEAVKGQTLLAVAKSQ | 2.22 | 1,044,615 ng/ml | 471,501 ng/ml |
| ICAM1 (protein, UniProt P05362 28-532, looked up) Intercellular adhesion …: QTSVSPSKVILPRGGSVLVTCSTSCDQPKLLGIETPLPKKELLLPGNNRKVYELSNVQEDSQPMCYSNCPDGQSTAKTFLTVYWTPERVELAPLPSWQPVGKNLTLRCQVEGGAPRANLTVVLLRGEKELKREPAVGEPAEVTTTVLVRRDHHGANFSCRTELDLRPQGLELFENTSAPYQLQTFVLPATPPQLVSPRVLEVDTQGTVVCSLDGLFPVSEAQVHLALGDQRLNPTVTYGNDSFSAKASVSVTAEDEGTQRLTCAVILGNQSQETLQTVTIYSFPAPNVILTKPEVSEGTEVTVKCEAHPRAKVTLNGVPAQPLGPRAQLLLKATPEDNGRSFSCSATLEVAGQLIHKNQTRELRVLYGPRLDERDCPGNWTWPENSQQTPMCQAWGNPLPELKCLKDGTFPLPIGESVTVTRDLEGTYLCRARSTQGEVTRKVTVNVLSPRYEIVIITVVAAAVIMGTAGLSTYLYNRQRKIKKYRLQQAQKGTPMKPNTQATPP | 2.26 | 45,436 ng/ml |  |
| TBC13 (protein, UniProt Q9NVG8 1-400, looked up) TBC1 domain family member 13: MSSLHKSRIADFQDVLKEPSIALEKLRELSFSGIPCEGGLRCLCWKILLNYLPLERASWTSILAKQRELYAQFLREMIIQPGIAKANMGVSREDVTFEDHPLNPNPDSRWNTYFKDNEVLLQIDKDVRRLCPDISFFQRATDYPCLLILDPQNEFETLRKRVEQTTLKSQTVARNRSGVTNMSSPHKNSVPSSLNEYEVLPNGCEAHWEVVERILFIYAKLNPGIAYVQGMNEIVGPLYYTFATDPNSEWKEHAEADTFFCFTNLMAEIRDNFIKSLDDSQCGITYKMEKVYSTLKDKDVELYLKLQEQNIKPQFFAFRWLTLLLSQEFLLPDVIRIWDSLFADDNRFDFLLLVCCAMLMLIREQLLEGDFTVNMRLLQDYPITDVCQILQKAKELQDSK | 2.16 | 20,263 ng/ml | 43,672 ng/ml |
| SBSN (protein, UniProt Q6UWP8 26-590, looked up) Suprabasin: DDPIEKVIEGINRGLSNAEREVGKALDGINSGITHAGREVEKVFNGLSNMGSHTGKELDKGVQGLNHGMDKVAHEINHGIGQAGKEAEKLGHGVNNAAGQVGKEADKLIHHGVHHGANQAGSEAGKFGQGVDNAAGQAGNEAGRFGQGVHHAAGQAGNEAGRFGQGVHHAAGQAGNEAGRFGQGAHHGLSEGWKETEKFGQGIHHAAGQVGKEAEKFGQGAHHAAGQAGNEAGRFGQGVHHGLSEGWKETEKFGQGVHHTAGQVGKEAEKFGQGAHHAAGQAGNEAGRFGQGAHHAAGQAGNEAGRFGQGVHHGLSEGWKETEKFGQGVHHAASQFGKETEKLGHGVHHGVNEAWKEAEKFGQGVHHAASQVGKEEDRVVQGLHHGVSQAGREAGQFGHDIHHTAGQAGKEGDIAVHGVQPGVHEAGKEAGQFGQGVHHTLEQAGKEADKAVQGFHTGVHQAGKEAEKLGQGVNHAADQAGKEVEKLGQGAHHAAGQAGKELQNAHNGVNQASKEANQLLNGNHQSGSSSHQGGATTTPLASGASVNTPFINLPALWRSVANIMP | 2.26 | 2,695,523 ng/ml | 1,193,666 ng/ml |
| CYTA (protein, UniProt P01040 1-98, looked up) Cystatin-A: MIPGGLSEAKPATPEIQEIVDKVKPQLEEKTNETYGKLEAVQYKTQVVAGTNYYIKVRAGDNKYMHLKVFKSLPGQNEDLVLTGYQVDKNKDDELTGF | 2.17 | 968,059 ng/ml | 446,666 ng/ml |
| UBE2K (protein, UniProt P61086 2-200, looked up) Ubiquitin-conjugating enzyme …: ANIAVQRIKREFKEVLKSEETSKNQIKVDLVDENFTELRGEIAGPPDTPYEGGRYQLEIKIPETYPFNPPKVRFITKIWHPNISSVTGAICLDILKDQWAAAMTLRTVLLSLQALLAAAEPDDPQDAVVANQYKQNPEMFKQTARLWAHVYAGAPVSSPEYTKKIENLCAMGFDRNAVIVALSSKSWDVETATELLLSN | 2.19 | 50,294 ng/ml | 22,994 ng/ml |
| BAF (protein, UniProt O75531 1-89, looked up) Barrier-to-autointegration …: MTTSQKHRDFVAEPMGEKPVGSLAGIGEVLGKKLEERGFDKAYVVLGQFLVLKKDEDLFREWLKDTCGANAKQSRDCFGCLREWCDAFL | 2.01 | 50,325 ng/ml | 25,077 ng/ml |
| SARNP (protein, UniProt P82979 2-210, looked up) SAP domain-containing …: ATETVELHKLKLAELKQECLARGLETKGIKQDLIHRLQAYLEEHAEEEANEEDVLGDETEEEETKPIELPVKEEEPPEKTVDVAAEKKVVKITSEIPQTERMQKRAERFNVPVSLESKKAARAARFGISSVPTKGLSSDNKPMVNLDKLKERAQRFGLNVSSISRKSEDDEKLKKRKERFGIVTSSAGTGTTEDTEAKKRKRAERFGIA | 2.21 | 96,270 ng/ml | 213,117 ng/ml |
| AMD (protein, UniProt P19021 31-973, looked up) Peptidyl-glycine …: FKETTRPFSNECLGTTRPVVPIDSSDFALDIRMPGVTPKQSDTYFCMSMRIPVDEEAFVIDFKPRASMDTVHHMLLFGCNMPSSTGSYWFCDEGTCTDKANILYAWARNAPPTRLPKGVGFRVGGETGSKYFVLQVHYGDISAFRDNNKDCSGVSLHLTRLPQPLIAGMYLMMSVDTVIPAGEKVVNSDISCHYKNYPMHVFAYRVHTHHLGKVVSGYRVRNGQWTLIGRQSPQLPQAFYPVGHPVDVSFGDLLAARCVFTGEGRTEATHIGGTSSDEMCNLYIMYYMEAKHAVSFMTCTQNVAPDMFRTIPPEANIPIPVKSDMVMMHEHHKETEYKDKIPLLQQPKREEEEVLDQGDFYSLLSKLLGEREDVVHVHKYNPTEKAESESDLVAEIANVVQKKDLGRSDAREGAEHERGNAILVRDRIHKFHRLVSTLRPPESRVFSLQQPPPGEGTWEPEHTGDFHMEEALDWPGVYLLPGQVSGVALDPKNNLVIFHRGDHVWDGNSFDSKFVYQQIGLGPIEEDTILVIDPNNAAVLQSSGKNLFYLPHGLSIDKDGNYWVTDVALHQVFKLDPNNKEGPVLILGRSMQPGSDQNHFCQPTDVAVDPGTGAIYVSDGYCNSRIVQFSPSGKFITQWGEESSGSSPLPGQFTVPHSLALVPLLGQLCVADRENGRIQCFKTDTKEFVREIKHSSFGRNVFAISYIPGLLFAVNGKPHFGDQEPVQGFVMNFSNGEIIDIFKPVRKHFDMPHDIVASEDGTVYIGDAHTNTVWKFTLTEKLEHRSVKKAGIEVQEIKEAEAVVETKMENKPTSSELQKMQEKQKLIKEPGSGVPVVLITTLLVIPVVVLLAIAIFIRWKKSRAFGDSEHKLETSSGRVLGRFRGKGSGGLNLGNFFASRKGYSRKGFDRLSTEGSDQEKEDDGSESEEEYSAPLPALAPSSS | 2.14 | 618,430 ng/ml | 1,321,341 ng/ml |
| STAU1 (protein, UniProt O95793 2-577, looked up) Double-stranded RNA-binding …: SQVQVQVQNPSAALSGSQILNKNQSLLSQPLMSIPSTTSSLPSENAGRPIQNSALPSASITSTSAAAESITPTVELNALCMKLGKKPMYKPVDPYSRMQSTYNYNMRGGAYPPRYFYPFPVPPLLYQVELSVGGQQFNGKGKTRQAAKHDAAAKALRILQNEPLPERLEVNGRESEEENLNKSEISQVFEIALKRNLPVNFEVARESGPPHMKNFVTKVSVGEFVGEGEGKSKKISKKNAAIAVLEELKKLPPLPAVERVKPRIKKKTKPIVKPQTSPEYGQGINPISRLAQIQQAKKEKEPEYTLLTERGLPRRREFVMQVKVGNHTAEGTGTNKKVAKRNAAENMLEILGFKVPQAQPTKPALKSEEKTPIKKPGDGRKVTFFEPGSGDENGTSNKEDEFRMPYLSHQQLPAGILPMVPEVAQAVGVSQGHHTKDFTRAAPNPAKATVTAMIARELLYGGTSPTAETILKNNISSGHVPHGPLTRPSEQLDYLSRVQGFQVEYKDFPKNNKNEFVSLINCSSQPPLISHGIGKDVESCHDMAALNILKLLSELDQQSTEMPRTGNGPMSVCGRC | 2.02 | 25,481 ng/ml | 51,349 ng/ml |
| EFC14 (protein, UniProt O75071 1-495, looked up) EF-hand calcium-binding …: MKKRKELNALIGLAGDSRRKKPKKGPSSHRLLRTEPPDSDSESSSEEEEEFGVVGNRSRFAKGDYLRCCKICYPLCGFVILAACVVACVGLVWMQVALKEDLDALKEKFRTMESNQKSSFQEIPKLNEELLSKQKQLEKIESGEMGLNKVWINITEMNKQISLLTSAVNHLKANVKSAADLISLPTTVEGLQKSVASIGNTLNSVHLAVEALQKTVDEHKKTMELLQSDMNQHFLKETPGSNQIIPSPSATSELDNKTHSENLKQDILYLHNSLEEVNSALVGYQRQNDLKLEGMNETVSNLTQRVNLIESDVVAMSKVEKKANLSFSMMGDRSATLKRQSLDQVTNRTDTVKIQSIKKEDSSNSQVSKLREKLQLISALTNKPESNRPPETADEEQVESFTSKPSALPKFSQFLGDPVEKAAQLRPISLPGVSSTEDLQDLFRKTGQDVDGKLTYQEIWTSLGSAMPEPESLRAFDSDGDGRYSFLELRVALGI | 2.03 | 46,304 ng/ml | 22,803 ng/ml |
